Experimental data as given in patent publication US10563263B2, “Genetic polymorphisms associated with statin response and cardiovascular diseases, methods of detection and uses thereof” (CELERA CORPORATION, priority 2010, dated 2020).
Further values from the same series stand in other lists.

Test system: CHD
Assay: Meta-analysis of CARE and WOSCOPS combined, synergy index, CHD endpoint
Format: in vivo, human
From the text: Tables 4-5 provide meta-analyses of CARE and WOSCOPS combined (2nd section of each table) for two endpoints (CHD and CVD) and three genetic models (dominant, recessive, and additive), as well as logistic regression analyses of CARE (3rd section of each table) and WOSCOPS (4th section of each table) individually.
Tables 12 and 17 provide results of meta-analysis of the CARE and WOSCOPS sample sets combined by direct genotyping and by imputing genotypes.
“P” indicates the p-value, and “P(R)” (or “P.R.”) indicates the p-value random effect. Both of these are p-values corresponding to a statistical test of whether the combined synergy index is equal to one but use different assumptions to derive the p-value. “P” is calculated using a fixed effects model, and “P(R)” is calculated using a random effects model.
“OR” indicates the odds ratio (synergy index) calculated from a fixed effects model, and “OR(R)” (or “OR.R.”) indicates the odds ratio (synergy index) calculated from a random effects model.

[1] = rs2095586 allele A DOMINANT Imputed
[2] = rs2095606 allele A DOMINANT Imputed
[3] = rs2102374 allele A ADDITIVE Imputed
[4] = rs2102374 allele A DOMINANT Imputed
[5] = rs2108426 allele C DOMINANT Imputed
[6] = rs2110664 allele A DOMINANT Imputed
[7] = rs2132242 allele A ADDITIVE Imputed
[8] = rs2132242 allele A DOMINANT Imputed
[9] = rs2158958 allele A DOMINANT Imputed

CC[C@H](C)C(=O)O[C@H]1C[C@H](O)C=C2C=C[C@H](C)[C@H](CC[C@@H](O)C[C@@H](O)CC(=O)O)[C@H]21 [Pravastatin, pravastatin]
OR (rs1582323 allele A DOMINANT Imputed, fixed effect): 0.6171 | OR(R) (rs1582323 allele A DOMINANT Imputed, random effect): 0.6171 | OR (rs1592485 allele C DOMINANT Imputed, fixed effect): 0.6167 | OR(R) (rs1592485 allele C DOMINANT Imputed, random effect): 0.6167 | OR (rs1600954 allele T ADDITIVE Imputed, fixed effect): 1.4064 | OR(R) (rs1600954 allele T ADDITIVE Imputed, random effect): 1.4064 | OR (rs1600954 allele T GENOTYPIC Imputed, fixed effect): 1.9926 | OR(R) (rs1600954 allele T GENOTYPIC Imputed, random effect): 1.9926 | Meta-analysis OR (rs1705244 allele G vs A (ref)): 0.60 | OR (rs1705261 allele A RECESSIVE Imputed, fixed effect): 1.7058 | OR(R) (rs1705261 allele A RECESSIVE Imputed, random effect): 1.7058 | OR (rs1818885 allele G GENOTYPIC Imputed, fixed effect): 2.1046 | OR(R) (rs1818885 allele G GENOTYPIC Imputed, random effect): 2.1046 | OR (rs1832222 allele G DOMINANT Imputed, fixed effect): 1.5562 | OR(R) (rs1832222 allele G DOMINANT Imputed, random effect): 1.5562 | Meta-analysis OR (rs1861326 allele A vs G (ref)): 0.64 | OR (rs1861327 allele G DOMINANT Imputed, fixed effect): 0.6096 | OR(R) (rs1861327 allele G DOMINANT Imputed, random effect): 0.6096 | Meta-analysis OR (rs1864924 allele G vs A (ref)): 1.40 | Meta-analysis OR (rs1866386, A1 (non-ref) A, A2 (ref) G): 0.74 | OR (rs1868581 allele G ADDITIVE Imputed, fixed effect): 1.4042 | OR(R) (rs1868581 allele G ADDITIVE Imputed, random effect): 1.4042 | OR (rs1868581 allele G GENOTYPIC Imputed, fixed effect): 2.1147 | OR(R) (rs1868581 allele G GENOTYPIC Imputed, random effect): 2.1147 | OR (rs1874313 allele A ADDITIVE Imputed, fixed effect): 0.7177 | OR(R) (rs1874313 allele A ADDITIVE Imputed, random effect): 0.7177 | OR (rs1874313 allele A DOMINANT Imputed, fixed effect): 0.6096 | OR(R) (rs1874313 allele A DOMINANT Imputed, random effect): 0.6096 | OR (rs1876409 allele C DOMINANT Imputed, fixed effect): 0.6278 | OR(R) (rs1876409 allele C DOMINANT Imputed, random effect): 0.6278 | Meta-analysis OR (rs1877986 allele A vs G (ref)): 0.62 | OR (rs1913201 allele G ADDITIVE Imputed, fixed effect): 0.7392 | OR(R) (rs1913201 allele G ADDITIVE Imputed, random effect): 0.7392 | OR (rs1913201 allele G DOMINANT Imputed, fixed effect): 0.6285 | OR(R) (rs1913201 allele G DOMINANT Imputed, random effect): 0.6285 | OR (rs1913201 allele G GENOTYPIC Imputed, fixed effect): 0.574 | OR(R) (rs1913201 allele G GENOTYPIC Imputed, random effect): 0.574 | OR (rs1916922 allele T GENOTYPIC Imputed, fixed effect): 2.1096 | OR(R) (rs1916922 allele T GENOTYPIC Imputed, random effect): 2.1096 | OR (rs1936871 allele G DOMINANT Genotyped, fixed effect): 0.6214 | OR(R) (rs1936871 allele G DOMINANT Genotyped, random effect): 0.6214 | OR (rs1961157 allele T RECESSIVE Imputed, fixed effect): 0.5553 | OR(R) (rs1961157 allele T RECESSIVE Imputed, random effect): 0.5553 | OR (rs1987179 allele T ADDITIVE Imputed, fixed effect): 0.7236 | OR(R) (rs1987179 allele T ADDITIVE Imputed, random effect): 0.7236 | OR (rs1987179 allele T DOMINANT Imputed, fixed effect): 0.6536 | OR(R) (rs1987179 allele T DOMINANT Imputed, random effect): 0.6536 | OR (rs1990023 allele T DOMINANT Imputed, fixed effect): 0.6661 | OR(R) (rs1990023 allele T DOMINANT Imputed, random effect): 0.6661 | OR (rs1995025 allele C DOMINANT Imputed, fixed effect): 1.5088 | OR(R) (rs1995025 allele C DOMINANT Imputed, random effect): 1.5088 | OR (rs2016194 allele G DOMINANT Imputed, fixed effect): 0.6718 | OR(R) (rs2016194 allele G DOMINANT Imputed, random effect): 0.6718 | OR (rs2023651 allele T ADDITIVE Imputed, fixed effect): 0.6532 | OR(R) (rs2023651 allele T ADDITIVE Imputed, random effect): 0.6532 | OR (rs2024902 allele A ADDITIVE Imputed, fixed effect): 1.9871 | OR(R) (rs2024902 allele A ADDITIVE Imputed, random effect): 1.9871 | OR (rs2024902 allele A DOMINANT Imputed, fixed effect): 2.0957 | OR(R) (rs2024902 allele A DOMINANT Imputed, random effect): 2.0957 | OR (rs2025107 allele A DOMINANT Imputed, fixed effect): 1.9576 | OR(R) (rs2025107 allele A DOMINANT Imputed, random effect): 1.9576 | OR (rs2025108 allele T DOMINANT Imputed, fixed effect): 1.9168 | OR(R) (rs2025108 allele T DOMINANT Imputed, random effect): 1.9168 | OR (rs2031987 allele T GENOTYPIC Imputed, fixed effect): 2.2431 | OR(R) (rs2031987 allele T GENOTYPIC Imputed, random effect): 2.2431 | OR (rs2052428 allele C DOMINANT Imputed, fixed effect): 0.6109 | OR(R) (rs2052428 allele C DOMINANT Imputed, random effect): 0.6109 | OR (rs2053230 allele C ADDITIVE Imputed, fixed effect): 0.5491 | OR(R) (rs2053230 allele C ADDITIVE Imputed, random effect): 0.5491 | OR (rs2062448 allele T DOMINANT Imputed, fixed effect): 0.5424 | OR(R) (rs2062448 allele T DOMINANT Imputed, random effect): 0.5424 | OR (rs2063420 allele C RECESSIVE Imputed, fixed effect): 1.8009 | OR(R) (rs2063420 allele C RECESSIVE Imputed, random effect): 1.8009 | OR (rs2063591 allele C ADDITIVE Imputed, fixed effect): 0.7622 | OR(R) (rs2063591 allele C ADDITIVE Imputed, random effect): 0.7622 | OR (rs2063591 allele C DOMINANT Imputed, fixed effect): 0.619 | OR(R) (rs2063591 allele C DOMINANT Imputed, random effect): 0.619 | Meta-analysis OR (rs2069542 allele A vs G (ref)): 1.62 | OR [1]: 1.582 | OR(R) [1]: 1.582 | OR [2]: 0.5812 | OR(R) [2]: 0.5812 | OR [3]: 0.6664 | OR(R) [3]: 0.6664 | OR [4]: 0.6016 | OR(R) [4]: 0.6016 | OR [5]: 0.6718 | OR(R) [5]: 0.6718 | OR [6]: 1.5536 | OR(R) [6]: 1.5536 | OR [7]: 0.7156 | OR(R) [7]: 0.7156 | OR [8]: 0.6098 | OR(R) [8]: 0.6098 | Meta-analysis OR (rs2157673 allele G vs A (ref)): 1.50 | OR [9]: 0.6712 | OR(R) [9]: 0.6712 | OR (rs2158961 allele G DOMINANT Imputed): 0.6715
